This passage reports binding results from paper PMC8549169.

Sequences of proteins named here, by UniProt entry; tags and fusion partners are left off. A change or cut given only in a name is not applied to a line headed by its entry. Residues count along the entry.
UniProt O15550: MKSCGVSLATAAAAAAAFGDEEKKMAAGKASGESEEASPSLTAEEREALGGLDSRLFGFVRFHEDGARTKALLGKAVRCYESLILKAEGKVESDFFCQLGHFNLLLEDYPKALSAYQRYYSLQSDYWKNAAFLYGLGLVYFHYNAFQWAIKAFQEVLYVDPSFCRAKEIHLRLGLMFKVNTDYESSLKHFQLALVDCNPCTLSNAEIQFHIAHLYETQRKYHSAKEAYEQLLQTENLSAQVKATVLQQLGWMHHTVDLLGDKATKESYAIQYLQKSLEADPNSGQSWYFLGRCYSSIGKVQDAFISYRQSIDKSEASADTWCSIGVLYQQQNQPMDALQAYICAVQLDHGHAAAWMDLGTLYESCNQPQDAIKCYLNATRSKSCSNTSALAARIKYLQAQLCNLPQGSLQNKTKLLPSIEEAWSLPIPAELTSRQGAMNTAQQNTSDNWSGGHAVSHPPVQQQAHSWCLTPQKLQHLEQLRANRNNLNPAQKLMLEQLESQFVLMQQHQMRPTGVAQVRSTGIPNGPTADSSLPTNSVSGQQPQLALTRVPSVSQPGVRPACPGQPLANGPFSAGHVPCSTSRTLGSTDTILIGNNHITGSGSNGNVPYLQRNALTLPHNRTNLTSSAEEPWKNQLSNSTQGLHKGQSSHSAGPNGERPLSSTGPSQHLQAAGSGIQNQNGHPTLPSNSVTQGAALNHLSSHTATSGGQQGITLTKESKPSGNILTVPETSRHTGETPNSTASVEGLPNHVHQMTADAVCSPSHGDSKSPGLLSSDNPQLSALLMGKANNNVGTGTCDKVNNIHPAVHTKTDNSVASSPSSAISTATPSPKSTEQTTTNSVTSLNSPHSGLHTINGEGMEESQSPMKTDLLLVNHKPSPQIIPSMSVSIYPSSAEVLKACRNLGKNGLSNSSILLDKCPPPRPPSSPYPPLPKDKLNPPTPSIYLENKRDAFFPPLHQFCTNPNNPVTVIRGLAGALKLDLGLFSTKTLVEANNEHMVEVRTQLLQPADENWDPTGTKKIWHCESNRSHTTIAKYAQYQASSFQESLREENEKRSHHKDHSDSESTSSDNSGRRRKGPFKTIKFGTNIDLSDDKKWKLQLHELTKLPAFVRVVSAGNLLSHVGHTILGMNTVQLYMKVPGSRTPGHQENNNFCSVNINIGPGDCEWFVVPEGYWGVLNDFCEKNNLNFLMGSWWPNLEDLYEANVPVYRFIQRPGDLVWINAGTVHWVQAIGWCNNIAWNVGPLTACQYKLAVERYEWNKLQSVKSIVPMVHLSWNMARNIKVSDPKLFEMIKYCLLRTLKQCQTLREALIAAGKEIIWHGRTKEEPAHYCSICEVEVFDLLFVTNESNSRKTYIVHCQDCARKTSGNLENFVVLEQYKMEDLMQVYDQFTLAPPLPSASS
eGFP-KDM6A TPR: residues 1-390 of O15550
eGFP-KDM6A JmjC: residues 886-1401 of O15550
UniProt P06748: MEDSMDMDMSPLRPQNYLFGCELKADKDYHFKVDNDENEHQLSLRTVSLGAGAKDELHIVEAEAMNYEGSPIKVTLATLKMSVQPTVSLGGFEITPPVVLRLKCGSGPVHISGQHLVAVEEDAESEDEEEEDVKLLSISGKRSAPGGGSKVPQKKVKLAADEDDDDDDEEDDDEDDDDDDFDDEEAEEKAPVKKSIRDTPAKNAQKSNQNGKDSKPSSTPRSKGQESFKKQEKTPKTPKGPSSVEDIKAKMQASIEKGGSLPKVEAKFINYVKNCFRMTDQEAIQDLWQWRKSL
UniProt Q15291: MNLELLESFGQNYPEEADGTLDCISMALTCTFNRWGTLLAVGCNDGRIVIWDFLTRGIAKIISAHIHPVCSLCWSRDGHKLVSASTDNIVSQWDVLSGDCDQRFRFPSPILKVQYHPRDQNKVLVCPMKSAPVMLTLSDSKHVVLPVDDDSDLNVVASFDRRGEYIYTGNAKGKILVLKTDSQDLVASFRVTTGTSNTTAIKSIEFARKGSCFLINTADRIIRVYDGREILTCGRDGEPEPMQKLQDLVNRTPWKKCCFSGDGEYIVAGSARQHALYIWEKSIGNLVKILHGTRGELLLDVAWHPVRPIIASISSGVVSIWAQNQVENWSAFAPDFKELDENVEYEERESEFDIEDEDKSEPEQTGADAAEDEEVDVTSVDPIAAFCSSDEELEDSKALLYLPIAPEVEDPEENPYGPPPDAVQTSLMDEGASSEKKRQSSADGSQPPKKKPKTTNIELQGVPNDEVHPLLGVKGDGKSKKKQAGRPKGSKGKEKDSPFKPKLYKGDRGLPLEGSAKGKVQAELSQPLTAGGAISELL

Among the targets are eGFP-KDM6A D336G (human) (UniProt O15550); eGFP-KDM6A JmjC (human) (UniProt O15550); eGFP-KDM6A T726K (human) (UniProt O15550); eGFP-KDM6A TPR (human) (UniProt O15550).
Holding throughout (assay): co-IP; eGFP-KDM6A variants or eGFP captured on GFP-trap dynabeads from lysates of transiently transfected SW-1710 and T-24 cells (48 h post transfection), 1 h at 4 °C, SDS-free RIPA like buffer (50 mM Tris-HCl pH 7.5, 0.3% CHAPS, 150 mM sodium chloride), washed three times; Western blot for endogenous RBBP5, NPM1, WDR5
For orientation: In western blotting, separated proteins are transferred to a membrane and probed.

Experiment [1] addresses eGFP-KDM6A wildtype (human) (UniProt O15550).

These are yes or no findings as the source states them, for the method shown. In cells and extracts the contact can be indirect. Some entries that bind do so weakly or less than the wild type.

On to “Nucleophosmin (from UniProt P06748 1-294)”, for which the binding entry was “no binding” with eGFP-KDM6A D336G (human), “no binding” in the experiment with eGFP-KDM6A JmjC (human), “binds” with eGFP-KDM6A T726K (human) and “no binding” with eGFP-KDM6A TPR (human).

For the substance RBBP5 (from UniProt Q15291 1-538), the binding entry is on record as “binds” with eGFP-KDM6A D336G (human); “no binding” in the experiment with eGFP-KDM6A JmjC (human); “binds” in the experiment with eGFP-KDM6A T726K (human); “binds” in the experiment with eGFP-KDM6A TPR (human); “binds” in experiment [1].
